Further values from the same series stand in other lists.
Test: Toxicokinetics and tissue disposition of total [14C] radioactivity after a single intratracheal dose of [14C]-PCB52 (0.157 mg/kg) in pregnant rats at GD 11±1
Type: in vivo, Sprague–Dawley rats
Procedure: Female Sprague–Dawley rats (8 weeks old) weighing 237–269.7 g (mean = 247.5 g) (Envigo RMS, LLC, Indianapolis, IN) were used for this study. All animal experiments were performed following the protocols evaluated and approved by the University of Iowa Institutional Animal Care and Use Committee (approval number 3091097). After arrival, the animals were acclimated for 7 days. The animals were housed in a light and temperature-controlled environment with ad libitum access to food and water during quarantine and throughout the study. Timed pregnancy was achieved by harem mating. , Briefly, one male and two female rats were placed together in the evening and checked for vaginal plug the following day. If vaginal plug was present, the male was removed from the breeding cage, and the gestation day 0 (GD 0), 0-day post coitum was assigned. Pregnancies were confirmed by ultrasound scan at GD 9. The dams were exposed at GD 11 (±1 day) to capture the period of early organogenesis and hormonal function, which falls within week 3 of human embryonic development. ,− On the day of the experiment, pregnant rats were intratracheally administered an average of 40 μg (range, 35–45 μg) of [^14C]-PCB52 in 100 μL of exposure solution. Although the dose used in this study exceeded the tolerable daily intake (TDI) of PCBs for healthy individuals, which is 1.6 μg per day for an individual weighing 80 kg, the use of higher acute doses has been established in toxicological studies intended for risk assessment. The intratracheal instillation method was chosen for administering [^14C]-PCB52 to represent inhalation exposures, capture exhaled concentration, and efficiently utilize the limited availability of the cost-intensive radiolabeled PCB52. , Although inhalation exposure would better represent real-world exposures to airborne LC-PCBs, it would not allow us to accurately measure the amount of PCB52 exhaled into the air after exposure and is experimentally infeasible. […] All intratracheal instillations were done under light anesthesia, achieved using a 4% isoflurane concentration via a Fortec vaporizer (Cyprane, Keighley, UK). The animals recovered from anesthesia within 1 min. Subsequently, the animals were housed within a cylindrical glass chamber measuring 2 L in volume, equipped with glass drainage mechanisms to facilitate urine collection and a metallic screen to segregate urine from feces (as in Figure S1). Air was drawn from the chamber at 6.0 L/min through a cartridge containing the XAD-2 polymeric resin to capture any exhaled [^14C]-PCB52. For periods longer than 24 h postexposure, exposed dams were placed in a metabolic cage, which was fitted with a cartridge containing XAD-2 to capture exhaled [^14C]-PCB52 as in other end points.
Maternal blood, urine, and feces samples were collected immediately before and at 0.21, 1.67, 12, 24, 48, and 96 h after lung dosing. The exposed dams were euthanized using 4% isoflurane, followed by cervical dislocation and exsanguination via a cardiac puncture. Euthanasia was consistently performed during the light cycle. Dams’ fur was wiped and analyzed for radioactivity. Using the retro-orbital blood collection method, 0.5–1.5 mL ([…] of an exposed pregnant rat’s body weight) of blood sample was collected from each of the dams until the individual dams were necropsied for whole-body tissue harvesting. At the end of the exposure period, the chamber’s interior walls were rinsed separately with water and acetone/hexane (25 – 45 mL) and wiped to measure residues. From the collected whole blood samples, 100 μL were aliquoted into three vials each, and the remaining blood was allowed to clot at room temperature before being centrifuged to yield serum. The placentas, developing fetuses, and whole-body tissue samples were harvested immediately before exposure and at 0.21, 1.67, 12, 24, and 96 h postexposure. […]

[1] = Adipose tissue, 96 h post-exposure
[2] = Adrenal gland, 0.21 h post-exposure
[3] = Adrenal gland, 1.67 h post-exposure
[4] = Adrenal gland, 12 h post-exposure
[5] = Adrenal gland, 24 h post-exposure
[6] = Adrenal gland, 96 h post-exposure
[7] = Amniotic fluid, 0.21 h post-exposure
[8] = Amniotic fluid, 1.67 h post-exposure
[9] = Amniotic fluid, 12 h post-exposure
[10] = Amniotic fluid, 24 h post-exposure
[11] = Amniotic fluid, 96 h post-exposure
[12] = Lymph nodes, 0.21 h post-exposure
[13] = Lymph nodes, 1.67 h post-exposure
[14] = Lymph nodes, 12 h post-exposure
[15] = Lymph nodes, 24 h post-exposure
[16] = Lymph nodes, 96 h post-exposure
[17] = Matter in amp. colon, 0.21 h post-exposure
[18] = Matter in amp. colon, 1.67 h post-exposure
[19] = Matter in amp. colon, 12 h post-exposure
[20] = Matter in amp. colon, 24 h post-exposure
[21] = Matter in amp. colon, 96 h post-exposure
[22] = Matter in colon, 0.21 h post-exposure

SMILES: Clc1ccc(Cl)c(-c2cc(Cl)ccc2Cl)c1 [PCB52, 2,2′,5,5′-Tetrachlorobiphenyl]
- C96 (Adipose tissue): 115.14 dpm/mg
- Conc. per mg wet tissue (Adipose tissue, 24 h post-exposure): 33.52 dpm/mg
- Conc. per mg wet tissue [1]: 11.83 dpm/mg
- Percent tissue distribution [1]: 12.91%
- C96 (Adrenal gland): 33.10 dpm/mg
- Conc. per mg wet tissue [2]: 3.40 dpm/mg
- Percent tissue distribution [2]: 3.76%
- Conc. per mg wet tissue [3]: 0.35 dpm/mg
- Percent tissue distribution [3]: 0.08%
- Conc. per mg wet tissue [4]: 10.33 dpm/mg
- Percent tissue distribution [4]: 0.04%
- Conc. per mg wet tissue [5]: 5.68 dpm/mg
- Percent tissue distribution [5]: 0.02%
- Conc. per mg wet tissue [6]: 3.40 dpm/mg
- Percent tissue distribution [6]: 0.02%
- C96 (Amniotic Fluid): 0.12 dpm/mg
- Conc. per mg wet tissue [7]: 0.01 dpm/mg
- Percent tissue distribution [7]: 0.0024%
- Conc. per mg wet tissue [8]: 10.77 dpm/mg
- Percent tissue distribution [8]: 0.018%
- Conc. per mg wet tissue [9]: 0.06 dpm/mg
- Percent tissue distribution [9]: 0.0008%
- Conc. per mg wet tissue [10]: 0.12 dpm/mg
- Percent tissue distribution [10]: 0.0009%
- Conc. per mg wet tissue [11]: 0.01 dpm/mg
- Percent tissue distribution [11]: 0.0004%
- C96 (Bladder): 9.20 dpm/mg
- Conc. per mg wet tissue (Bladder, 0.21 h post-exposure): 0.00 dpm/mg
- Percent tissue distribution (Bladder, 0.21 h post-exposure): 0.01%
- Conc. per mg wet tissue (Bladder, 1.67 h post-exposure): 2.82 dpm/mg
- Percent tissue distribution (Bladder, 1.67 h post-exposure): 0.05%
- Conc. per mg wet tissue (Bladder, 12 h post-exposure): 1.20 dpm/mg
- Percent tissue distribution (Bladder, 12 h post-exposure): 0.01%
- Conc. per mg wet tissue (Bladder, 24 h post-exposure): 3.71 dpm/mg
- Percent tissue distribution (Bladder, 24 h post-exposure): 0.02%
- Conc. per mg wet tissue (Bladder, 96 h post-exposure): 0.00 dpm/mg
- C96 (Colon tissue): 18.20 dpm/mg
- C96 (Duodenum): 8.12 dpm/mg
- C96 (Esophagus): 2.43 dpm/mg
- C96 (Fetus): 0.57 dpm/mg
- Conc. per mg wet tissue (Fetus, 0.21 h post-exposure): 0.06 dpm/mg
- Percent tissue distribution (Fetus, 0.21 h post-exposure): 0.07%
- Conc. per mg wet tissue (Fetus, 1.67 h post-exposure): 2.02 dpm/mg
- Percent tissue distribution (Fetus, 1.67 h post-exposure): 0.08%
- Conc. per mg wet tissue (Fetus, 12 h post-exposure): 0.47 dpm/mg
- Percent tissue distribution (Fetus, 12 h post-exposure): 0.002%
- Conc. per mg wet tissue (Fetus, 24 h post-exposure): 0.19 dpm/mg
- Percent tissue distribution (Fetus, 24 h post-exposure): 0.03%
- Conc. per mg wet tissue (Fetus, 96 h post-exposure): 0.06 dpm/mg
- Percent tissue distribution (Fetus, 96 h post-exposure): 0.02%
- C96 (Heart): 1.80 dpm/mg
- Conc. per mg wet tissue (Heart, 0.21 h post-exposure): 24.66 dpm/mg
- Percent tissue distribution (Heart, 0.21 h post-exposure): 0.95%
- Conc. per mg wet tissue (Heart, 1.67 h post-exposure): 5.89 dpm/mg
- Percent tissue distribution (Heart, 1.67 h post-exposure): 0.32%
- Conc. per mg wet tissue (Heart, 12 h post-exposure): 3.15 dpm/mg
- Percent tissue distribution (Heart, 12 h post-exposure): 0.10%
- Conc. per mg wet tissue (Heart, 24 h post-exposure): 3.56 dpm/mg
- Percent tissue distribution (Heart, 24 h post-exposure): 0.08%
- Percent tissue distribution (Heart, 96 h post-exposure): 0.01%
- C96 (Kidney): 5.98 dpm/mg
- Conc. per mg wet tissue (Kidney, 0.21 h post-exposure): 40.98 dpm/mg
- Percent tissue distribution (Kidney, 0.21 h post-exposure): 2.47%
- Conc. per mg wet tissue (Kidney, 1.67 h post-exposure): 11.01 dpm/mg
- Percent tissue distribution (Kidney, 1.67 h post-exposure): 0.63%
- Conc. per mg wet tissue (Kidney, 12 h post-exposure): 2.65 dpm/mg
- Percent tissue distribution (Kidney, 12 h post-exposure): 0.30%
- Conc. per mg wet tissue (Kidney, 24 h post-exposure): 2.44 dpm/mg
- Percent tissue distribution (Kidney, 24 h post-exposure): 0.38%
- Conc. per mg wet tissue (Kidney, 96 h post-exposure): 0.53 dpm/mg
- Percent tissue distribution (Kidney, 96 h post-exposure): 0.08%
- C96 (Liver): 5.19 dpm/mg
- C96 (Lung): 14.01 dpm/mg
- Conc. per mg wet tissue (Lung, 0.21 h post-exposure): 6.22 dpm/mg
- Percent tissue distribution (Lung, 0.21 h post-exposure): 3.48%
- Conc. per mg wet tissue (Lung, 1.67 h post-exposure): 9.65 dpm/mg
- Percent tissue distribution (Lung, 1.67 h post-exposure): 1.40%
- Conc. per mg wet tissue (Lung, 12 h post-exposure): 6.35 dpm/mg
- Percent tissue distribution (Lung, 12 h post-exposure): 0.71%
- Conc. per mg wet tissue (Lung, 24 h post-exposure): 6.31 dpm/mg
- Percent tissue distribution (Lung, 24 h post-exposure): 0.58%
- Conc. per mg wet tissue (Lung, 96 h post-exposure): 1.70 dpm/mg
- Percent tissue distribution (Lung, 96 h post-exposure): 0.13%
- Conc. per mg wet tissue [12]: 9.72 dpm/mg
- Percent tissue distribution [12]: 0.02%
- Conc. per mg wet tissue [13]: 21.16 dpm/mg
- Percent tissue distribution [13]: 0.05%
- Conc. per mg wet tissue [14]: 23.12 dpm/mg
- Percent tissue distribution [14]: 0.04%
- Conc. per mg wet tissue [15]: 26.43 dpm/mg
- Percent tissue distribution [15]: 0.03%
- Conc. per mg wet tissue [16]: 4.53 dpm/mg
- Percent tissue distribution [16]: 0.02%
- C96 (Mammary glands): 44.06 dpm/mg
- C96 (Matter in Colon): 98.31 dpm/mg
- C96 (Matter in amp colon): 34.55 dpm/mg
- Conc. per mg wet tissue [17]: 2.42 dpm/mg
- Percent tissue distribution [17]: 0.12%
- Conc. per mg wet tissue [18]: 0.81 dpm/mg
- Percent tissue distribution [18]: 0.08%
- Conc. per mg wet tissue [19]: 32.64 dpm/mg
- Percent tissue distribution [19]: 2.61%
- Conc. per mg wet tissue [20]: 27.35 dpm/mg
- Percent tissue distribution [20]: 1.82%
- Conc. per mg wet tissue [21]: 3.55 dpm/mg
- Percent tissue distribution [21]: 0.30%
- Conc. per mg wet tissue [22]: 2.42 dpm/mg
- Percent tissue distribution [22]: 0.14%
- Conc. per mg wet tissue (Matter in colon, 1.67 h post-exposure): 1.23 dpm/mg
